# Results reported in the supplement of paper PMC12889115.
# The list shows a part of the results. These are raw signals, not scaled to a control.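 In the initial screen, polymyxin B was used at a concentration that permeabilizes Salmonella's outer membrane but not its inner membrane. Maximum growth was set by DMSO wells with or without polymyxin B. Since plates varied, data were ranked per plate, and compounds giving the lowest OD600 advanced as hits.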
# Tested on: Salmonella enterica serovar Typhimurium SL1344
# Assay: bacterial growth OD600 after 18 h with compound and polymyxin B; higher = more bacterial growth (less inhibition)
# Settings: 50 µM, Mueller-Hinton broth
SMILES,bacterial growth OD600 (polymyxin B 1 µg/mL),bacterial growth OD600 (polymyxin B 0.75 µg/mL)
COc1ccc(CN2CCNC(=O)C2CC(=O)N(C)CCc2ccccc2)c(F)c1 (centres undefined),0.84,
O=C(/C=C/c1ccccc1)N1CCCC(c2nc(-c3ccncc3)ncc2-c2ccccc2)C1 (centres undefined),,-0.005
CN(Cc1ccccn1)C(=O)CC1(c2cccc(C(F)(F)F)c2)CC(=O)N(C2CC2)C1=O (centres undefined),,0.851
O=C(c1ccc(N2CCC(NCCC(c3ccccc3)c3ccccc3)CC2)cc1)N1CCOCC1,,1.02
Cc1nc(N2CCC(C(=O)N3CCN(C(=O)c4ccco4)CC3)CC2)nc2ccc(C(C)C)cc12,,0.811
CN(C(=O)CC1C(=O)NCCN1Cc1ccccn1)C1CC(C)(C)NC(C)(C)C1 (centres undefined),1.02,
COc1ccc(C(=O)NC2CC2)c(OC2CCN(C3Cc4ccccc4C3)CC2)c1,,0.745
CCn1ccnc1CN(C)C(=O)c1cn(Cc2ccccc2Cl)nn1,0.843,
COCCN1CCCC2(CCN(C(=O)CC3CCCCC3)C2)C1=O (centres undefined),0.917,
CSCC(=O)N1CCC(C2CCN(c3ncccn3)CC2)C1 (centres undefined),1.04,
O=C1CCCN1CCC(=O)N1CCCC(CCc2cccc(F)c2)C1 (centres undefined),,0.861
CS(=O)(=O)N1CCC(Oc2ccc(C(=O)NCCN3CCCCC3)cc2Cl)CC1,1.26,
Cc1cc(C(=O)N(C)C(Cc2ccccc2)C2CCN(C(=O)/C(F)=C/c3ccccc3)CC2)n(C)n1 (centres undefined),,0.012
COC(=O)c1ccccc1C(=O)N(C)CC1CCCN(CCc2ccc(F)cc2)C1 (centres undefined),0.829,
CCn1ccnc1CNC(=O)c1cc(COc2ccc(OC)c3ccccc23)on1,,0.4
C=CCC(=O)N1CCc2c(sc(S(=O)(=O)NCc3ccc(Cl)cc3)c2C(=O)OC)C1,,0.98
COc1ccccc1C1(CC(=O)N2CCCC(C(=O)CCc3ccccc3)C2)CC(=O)N(C)C1=O (centres undefined),,0.541
COC(=O)c1ccc(CNCCC2CCC(=O)N2CCn2cncn2)cc1 (centres undefined),,0.982
CCOc1cc(CN2CC[C@@H](N3CCC(O)CC3)[C@H](O)C2)ccc1O,0.952,

# Single records (already shown).
# `CN(Cc1ccccn1)C(=O)CC1(c2cccc(C(F)(F)F)c2)CC(=O)N(C2CC2)C1=O` (centres undefined) is listed with bacterial growth OD600 (polymyxin B 0.75 µg/mL): 0.851
# `COCCN1CCCC2(CCN(C(=O)CC3CCCCC3)C2)C1=O` (centres undefined) is listed with bacterial growth OD600 (polymyxin B 1 µg/mL): 0.917
